Experimental findings from ChEMBL document CHEMBL1649559, “Prospective comparison of the clinical impacts of heterogeneous vancomycin-intermediate methicillin-resistant Staphylococcus aureus (MRSA) and vancomycin-susceptible MRSA” (2009) are described below.

This experiment concerns Staphylococcus aureus. The experiment is described as follows: microbe, parasite or virus in culture.

Structures are written as SMILES. Some results are limits rather than exact numbers.

In the case of `CN[C@H](CC(C)C)C(=O)N[C@H]1C(=O)N[C@@H](CC(N)=O)C(=O)N[C@H]2C(=O)N[C@H]3C(=O)N[C@H](C(=O)N[C@H](C(=O)O)c4cc(O)cc(O)c4-c4cc3ccc4O)[C@H](O)c3ccc(c(Cl)c3)Oc3cc2cc(c3O[C@@H]2O[C@H](CO)[C@@H](O)[C@H](O)[C@H]2O[C@H]2C[C@](C)(N)[C@H](O)[C@H](C)O2)Oc2ccc(cc2Cl)[C@H]1O` [VANCOMYCIN], the MIC is at least 4 µg/mL.
